# PubChem BioAssay AID1224830 | NIAID – 2016
# Screen: 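Genes whose knock-down alters the TNF-alpha reporter response to LPS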 (primary screen)
# System: human THP-1 monocytic leukaemia cells, TNF dual-luciferase reporter clone, PMA-differentiated to macrophage-like cells
# Reagents: siRNA pool against human genes, 50 nM
# Timing: LPS for 4 h, given about 3 days after siRNA transfection
# Challenge: bacterial LPS (TLR4 ligand), 10 ng/ml
# Detection: 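TNF firefly reporter luminescence divided by renilla, normalised to the plate median, then turned into a robust z-score for each replicate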
# Scale: TNF reporter robust z-score: higher = stronger TNF reporter response to LPS
# Hit rule: 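Each well counts as active if its z-score is over 2.8 or under -1.5; controls are left without a call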
# Here is a random part of about 18,000 deposited reagents. In the full data, about 2,900 (16%) were called active. 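Calls are made per well; low scores hint the gene aids the LPS response, high scores that it dampens it.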 Repeated entries: four replicate wells of each siRNA pool. No sequences are given here.
Gene,TNF reporter robust z-score,outcome
KLF7,0.31,inactive
KLF7,1.79,inactive
KLF7,-0.07,inactive
KLF7,2.04,inactive
TFAP2B,-0.5,inactive
TFAP2B,0.09,inactive
TFAP2B,-0.24,inactive
TFAP2B,0.12,inactive
CRIP3,-0.14,inactive
CRIP3,1.47,inactive
CRIP3,0.78,inactive
CRIP3,0.11,inactive
KCNIP3,1.39,inactive
KCNIP3,-0.78,inactive
KCNIP3,2.02,inactive
KCNIP3,2.36,inactive
THNSL2,3.33,active
THNSL2,-1.42,inactive
THNSL2,0.94,inactive
THNSL2,1,inactive
SLC12A9,-0.07,inactive
SLC12A9,0.85,inactive
SLC12A9,0.33,inactive
SLC12A9,0.27,inactive
STX3,-0.44,inactive
STX3,-0.1,inactive
STX3,0.56,inactive
STX3,-0.61,inactive
ACD,1.13,inactive
ACD,0.24,inactive
ACD,-0.83,inactive
ACD,1.14,inactive
DPH1,-0.29,inactive
DPH1,0.6,inactive
DPH1,-1.39,inactive
DPH1,0.87,inactive
CLUH,-1.33,inactive
CLUH,1.6,inactive
CLUH,0.63,inactive
CLUH,-0.32,inactive
DTNB,-1.45,inactive
DTNB,-1.72,active
DTNB,-1.32,inactive
DTNB,-1.71,active
BCL2L2,-0.38,inactive
BCL2L2,-0.36,inactive
BCL2L2,1.01,inactive
BCL2L2,0.51,inactive
LAMTOR3,0.88,inactive
LAMTOR3,0.03,inactive
LAMTOR3,0.41,inactive
LAMTOR3,0.72,inactive
REC114,-0.11,inactive
REC114,0.56,inactive
REC114,0.09,inactive
REC114,0.59,inactive
ZNF35,-0.5,inactive
ZNF35,0.47,inactive
ZNF35,-0.9,inactive
ZNF35,-0.72,inactive
RIMKLB,,inactive
LYPLA2,-1.11,inactive
LYPLA2,-0.63,inactive
LYPLA2,-0.58,inactive
LYPLA2,-0.28,inactive
ALG5,1.15,inactive
ALG5,4.28,active
ALG5,3.52,active
ALG5,2.53,inactive
HCAR3,1.3,inactive
HCAR3,0.22,inactive
HCAR3,2.54,inactive
HCAR3,2.58,inactive
GPX2,0.37,inactive
GPX2,0.51,inactive
GPX2,0.12,inactive
GPX2,1.41,inactive
TFF2,0.23,inactive
TFF2,0.51,inactive
TFF2,0.46,inactive
TFF2,0.17,inactive
NOX5,-0.36,inactive
NOX5,0.37,inactive
NOX5,-0.03,inactive
NOX5,1.06,inactive
NOX5,0.24,inactive
NOX5,-0.65,inactive
NOX5,-1.09,inactive
NOX5,0.51,inactive
ERGIC2,2.57,inactive
ERGIC2,1,inactive
ERGIC2,1.43,inactive
ERGIC2,1.08,inactive
MPP4,-0.02,inactive
MPP4,0.54,inactive
MPP4,0.48,inactive
MPP4,0.63,inactive
SNX33,-0.63,inactive
SNX33,0.27,inactive
SNX33,0.57,inactive
SNX33,0.04,inactive
LINGO4,0.59,inactive
LINGO4,2.06,inactive
LINGO4,-0.64,inactive
LINGO4,-0.09,inactive
FNBP1,3.73,active
FNBP1,1.68,inactive
FNBP1,0.29,inactive
FNBP1,0.08,inactive
GSTO2,-0.35,inactive
GSTO2,-0.31,inactive
GSTO2,0.02,inactive
GSTO2,0.51,inactive

9 entries from above, set out differently:
{"Gene": "SNX33", "TNF reporter robust z-score": -0.63, "outcome": "inactive"}
{"Gene": "SNX33", "TNF reporter robust z-score": 0.27, "outcome": "inactive"}
{"Gene": "SNX33", "TNF reporter robust z-score": 0.57, "outcome": "inactive"}
{"Gene": "SNX33", "TNF reporter robust z-score": 0.04, "outcome": "inactive"}
{"Gene": "LINGO4", "TNF reporter robust z-score": 0.59, "outcome": "inactive"}
{"Gene": "LINGO4", "TNF reporter robust z-score": 2.06, "outcome": "inactive"}
{"Gene": "LINGO4", "TNF reporter robust z-score": -0.64, "outcome": "inactive"}
{"Gene": "LINGO4", "TNF reporter robust z-score": -0.09, "outcome": "inactive"}
{"Gene": "FNBP1", "TNF reporter robust z-score": 3.73, "outcome": "active"}
